In article PMC10119424:
Results are given in words; binding and its absence hold for the method and conditions named. In cells and extracts the contact can be indirect. Some entries that bind do so weakly or less than the wild type.

Protein sequences, listed by entry. Tags and fused reporters are not part of them.
UniProt P63081: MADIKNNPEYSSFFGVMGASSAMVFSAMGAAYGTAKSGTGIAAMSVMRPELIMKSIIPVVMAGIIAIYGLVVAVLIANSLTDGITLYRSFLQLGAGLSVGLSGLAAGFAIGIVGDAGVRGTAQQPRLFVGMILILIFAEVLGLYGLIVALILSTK
UniProt Q99418: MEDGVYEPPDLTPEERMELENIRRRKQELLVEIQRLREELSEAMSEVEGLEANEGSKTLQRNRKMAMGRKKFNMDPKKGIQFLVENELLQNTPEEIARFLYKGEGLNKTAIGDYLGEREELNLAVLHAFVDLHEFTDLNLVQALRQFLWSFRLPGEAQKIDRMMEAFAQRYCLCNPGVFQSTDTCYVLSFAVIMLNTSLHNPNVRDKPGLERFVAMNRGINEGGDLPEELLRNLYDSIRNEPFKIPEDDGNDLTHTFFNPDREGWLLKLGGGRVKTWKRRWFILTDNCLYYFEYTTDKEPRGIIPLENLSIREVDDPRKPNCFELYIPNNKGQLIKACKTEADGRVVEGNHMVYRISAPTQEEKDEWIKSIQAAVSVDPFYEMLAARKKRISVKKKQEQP
UniProt Q2KI41: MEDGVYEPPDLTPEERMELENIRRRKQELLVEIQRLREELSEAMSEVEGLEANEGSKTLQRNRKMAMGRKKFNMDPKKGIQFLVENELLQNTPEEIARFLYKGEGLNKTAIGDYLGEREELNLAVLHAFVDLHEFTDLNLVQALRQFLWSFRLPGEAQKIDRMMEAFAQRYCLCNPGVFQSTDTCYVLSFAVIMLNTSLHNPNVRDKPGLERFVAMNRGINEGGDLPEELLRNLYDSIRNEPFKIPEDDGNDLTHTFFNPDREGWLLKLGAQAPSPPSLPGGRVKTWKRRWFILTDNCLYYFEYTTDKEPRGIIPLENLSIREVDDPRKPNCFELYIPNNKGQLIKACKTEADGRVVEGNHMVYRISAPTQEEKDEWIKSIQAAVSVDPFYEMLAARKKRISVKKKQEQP
UniProt P62332: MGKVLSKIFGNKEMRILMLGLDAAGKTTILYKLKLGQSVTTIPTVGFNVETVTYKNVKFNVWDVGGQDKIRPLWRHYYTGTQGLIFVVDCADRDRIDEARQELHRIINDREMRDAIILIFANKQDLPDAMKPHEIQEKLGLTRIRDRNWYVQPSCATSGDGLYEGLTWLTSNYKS
UniProt P25286: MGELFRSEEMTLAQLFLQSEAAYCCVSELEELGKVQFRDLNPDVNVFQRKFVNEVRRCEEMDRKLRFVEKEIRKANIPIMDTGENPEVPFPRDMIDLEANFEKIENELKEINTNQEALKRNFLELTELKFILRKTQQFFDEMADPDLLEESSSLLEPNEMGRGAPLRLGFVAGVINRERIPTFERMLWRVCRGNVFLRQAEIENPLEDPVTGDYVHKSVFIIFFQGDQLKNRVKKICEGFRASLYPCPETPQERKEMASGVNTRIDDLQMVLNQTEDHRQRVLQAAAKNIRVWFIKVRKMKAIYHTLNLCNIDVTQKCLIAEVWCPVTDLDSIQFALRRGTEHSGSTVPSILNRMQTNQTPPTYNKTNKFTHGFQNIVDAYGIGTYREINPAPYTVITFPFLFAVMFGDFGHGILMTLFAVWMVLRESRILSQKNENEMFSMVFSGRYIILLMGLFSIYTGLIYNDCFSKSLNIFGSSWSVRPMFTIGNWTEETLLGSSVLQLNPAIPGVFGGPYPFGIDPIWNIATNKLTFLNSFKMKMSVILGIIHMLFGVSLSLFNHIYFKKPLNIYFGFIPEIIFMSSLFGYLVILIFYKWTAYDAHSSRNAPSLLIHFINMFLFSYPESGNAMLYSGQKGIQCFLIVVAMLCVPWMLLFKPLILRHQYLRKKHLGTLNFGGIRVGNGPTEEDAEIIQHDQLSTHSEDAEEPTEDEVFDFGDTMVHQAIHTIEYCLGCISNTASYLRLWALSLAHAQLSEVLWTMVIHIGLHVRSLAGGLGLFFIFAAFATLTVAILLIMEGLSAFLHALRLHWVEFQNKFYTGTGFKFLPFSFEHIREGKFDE
UniProt Q29466: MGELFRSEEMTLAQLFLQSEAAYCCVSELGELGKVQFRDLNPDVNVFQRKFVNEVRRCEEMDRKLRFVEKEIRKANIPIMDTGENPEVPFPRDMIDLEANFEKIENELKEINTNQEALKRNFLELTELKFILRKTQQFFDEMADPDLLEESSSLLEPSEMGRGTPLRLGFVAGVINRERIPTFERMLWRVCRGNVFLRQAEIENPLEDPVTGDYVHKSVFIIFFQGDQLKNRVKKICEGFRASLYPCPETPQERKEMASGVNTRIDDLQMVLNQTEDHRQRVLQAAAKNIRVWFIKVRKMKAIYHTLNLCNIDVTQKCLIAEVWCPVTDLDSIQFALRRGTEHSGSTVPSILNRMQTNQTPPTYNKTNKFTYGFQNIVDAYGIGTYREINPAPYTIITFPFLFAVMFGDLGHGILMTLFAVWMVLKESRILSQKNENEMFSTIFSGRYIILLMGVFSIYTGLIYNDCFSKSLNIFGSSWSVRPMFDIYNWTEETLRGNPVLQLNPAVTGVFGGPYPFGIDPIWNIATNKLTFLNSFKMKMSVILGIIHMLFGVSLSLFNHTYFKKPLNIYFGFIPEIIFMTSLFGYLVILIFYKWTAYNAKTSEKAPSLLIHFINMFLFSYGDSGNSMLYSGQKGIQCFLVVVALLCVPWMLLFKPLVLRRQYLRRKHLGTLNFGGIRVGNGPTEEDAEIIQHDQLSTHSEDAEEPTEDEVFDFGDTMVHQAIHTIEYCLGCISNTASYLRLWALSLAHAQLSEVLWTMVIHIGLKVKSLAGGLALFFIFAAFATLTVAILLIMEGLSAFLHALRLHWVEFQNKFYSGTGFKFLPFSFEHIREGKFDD

Key:
[1] = biological target: V0c subunit of the V-ATPase (PC12 cells) (UniProt P63081); experiment: co-IP; in PC12 cells; data not shown
ARNO-ShadowG = ARNO-ShadowG (UniProt Q99418); experiment: FRET or BRET; FLIM-FRET in live bovine chromaffin cells expressing V0a1-NowGFP (donor) and ARNO-ShadowG (dark acceptor); donor lifetime before and at different times after stimulation with nicotine; two-photon excitation at 930 nm, 37°C, Locke's solution, 60 s acquisition, one-component exponential fit
[2] = biological target: Arf nucleotide-binding site opener (ARNO) (endogenous, bovine chromaffin cells) (bovine (endogenous in bovine chromaffin cells)) (UniProt Q2KI41); experiment: co-IP; endogenous proteins from chromaffin cells extract, resting and after cell stimulation; data not shown

## Arf6 GTPase (PC12 cells) (from UniProt P62332 1-175)
[1]
  binding: binds

## V0a1-NowGFP (from UniProt P25286 1-838)
ARNO-ShadowG
  binding: binds

## V0a1 subunit of the V-ATPase (endogenous, bovine chromaffin cells) (from UniProt Q29466 1-838)
[2]
  binding: binds
